Publication PMC4824076, “Integrated microfluidic approach for quantitative high-throughput measurements of transcription factor binding affinities”
pKd: −log10 of the molar value. For part of these data: Where a protein sequence is shown, tags need not be part of it. For part of these data: The exact form of at least one protein or probe is not confirmed. For part of these data: No signal at the amounts used counts as a negative.

Chains of the proteins cited; added tags and fusions are not shown. Chains listed by the source or under a name are the forms on record and can include a tag or linker.
c-Fos/c-Jun (Homo sapiens), one chain, as listed by the source, chain 1 of 2: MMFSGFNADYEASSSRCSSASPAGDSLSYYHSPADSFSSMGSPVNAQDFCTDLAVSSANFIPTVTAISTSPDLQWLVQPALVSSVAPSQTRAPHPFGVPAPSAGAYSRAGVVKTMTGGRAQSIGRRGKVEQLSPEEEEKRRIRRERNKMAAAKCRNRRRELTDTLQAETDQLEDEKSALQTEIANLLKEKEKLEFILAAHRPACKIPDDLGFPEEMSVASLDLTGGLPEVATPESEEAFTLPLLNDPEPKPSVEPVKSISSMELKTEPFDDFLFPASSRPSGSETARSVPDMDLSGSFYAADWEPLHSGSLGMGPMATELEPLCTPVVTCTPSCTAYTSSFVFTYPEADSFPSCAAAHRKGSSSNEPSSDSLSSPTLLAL
c-Jun (Homo sapiens), one chain, as listed by the source: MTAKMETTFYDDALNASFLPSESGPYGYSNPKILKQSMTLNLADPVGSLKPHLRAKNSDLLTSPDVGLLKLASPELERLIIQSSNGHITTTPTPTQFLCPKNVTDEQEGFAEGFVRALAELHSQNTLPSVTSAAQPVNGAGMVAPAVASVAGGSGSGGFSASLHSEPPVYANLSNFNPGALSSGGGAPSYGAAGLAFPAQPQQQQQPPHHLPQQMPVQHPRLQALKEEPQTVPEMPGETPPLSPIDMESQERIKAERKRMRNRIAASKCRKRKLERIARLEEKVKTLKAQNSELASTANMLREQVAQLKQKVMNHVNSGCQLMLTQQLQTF

Legend:
ATF1 (Homo sapiens) = molecular target: T1, ATF1 (Homo sapiens) (UniProt P18846); test: binding assay; details: MITOMI-type chip (QPID); rabbit reticulocyte lysate, 1 h; wash 50 mM HEPES; temperature not stated; DNA spotted at 0.0156-2 uM; protein translated in vitro; protein details: N-cMyc, C-His6 (kept); label: Cy5 on the primer strand
T1 sequence (looked up, limits assumed): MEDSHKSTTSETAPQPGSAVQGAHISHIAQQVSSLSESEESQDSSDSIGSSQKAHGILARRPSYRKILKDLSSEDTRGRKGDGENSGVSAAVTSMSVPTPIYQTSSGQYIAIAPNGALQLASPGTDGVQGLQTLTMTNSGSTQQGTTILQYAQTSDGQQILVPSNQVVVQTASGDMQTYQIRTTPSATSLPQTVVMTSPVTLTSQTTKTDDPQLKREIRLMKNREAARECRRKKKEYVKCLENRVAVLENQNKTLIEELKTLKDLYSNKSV

ATF3 (Homo sapiens) = molecular target: T2, ATF3 (Homo sapiens) (UniProt P18847); test: binding assay; details: MITOMI-type chip (QPID); rabbit reticulocyte lysate, 1 h; wash 50 mM HEPES; temperature not stated; DNA spotted at 0.0156-2 uM; protein translated in vitro; protein details: N-cMyc, C-His6 (kept); label: Cy5 on the primer strand
T2 sequence (looked up, limits assumed): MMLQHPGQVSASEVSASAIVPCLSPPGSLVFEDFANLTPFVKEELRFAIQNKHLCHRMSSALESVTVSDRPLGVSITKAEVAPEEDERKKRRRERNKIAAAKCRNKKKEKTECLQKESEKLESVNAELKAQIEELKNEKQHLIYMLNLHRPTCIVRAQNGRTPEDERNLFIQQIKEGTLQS

c-Fos = test: MITOMI (QPID); details: QPID microfluidic MITOMI; 1 h incubation of in vitro expressed extract (about 25 ul, 50 ng protein) with spotted Cy5-dsDNA; protein translated in vitro; label: Cy5
c-Jun (Homo sapiens) = test: binding assay; details: MITOMI-type chip (QPID), rabbit reticulocyte lysate, 1 h, wash 50 mM HEPES, temperature not stated, DNA spotted at 0.0156-2 uM, protein translated in vitro, protein details: N-cMyc, C-His6 (kept), label: Cy5 on the primer strand
[1] = tested on: c-Fos/c-Jun (Homo sapiens); test: binding assay; details: MITOMI-type chip (QPID); rabbit reticulocyte lysate, 1 h; wash 50 mM HEPES; temperature not stated; DNA spotted at 0.0156-2 uM; protein translated in vitro; label: Cy5 on the primer strand; variant of oligo 1 (CRE)
c-Jun = test: MITOMI (QPID); details: QPID microfluidic MITOMI; 1 h incubation of in vitro expressed extract (about 25 ul, 50 ng protein) with spotted Cy5-dsDNA; protein translated in vitro; label: Cy5
c-Jun + c-Fos = test: MITOMI (QPID); details: QPID microfluidic MITOMI; 1 h incubation of in vitro expressed extract (about 25 ul, 50 ng protein) with spotted Cy5-dsDNA; protein translated in vitro; label: Cy5

CGCCAGACTTTTCGAGACCGTCAATTGGTCGTAGTCCCCTCCGGCGGTATGAC (double strand) [51.ATF1_CRE_hs_3]
Kd (ATF1 (Homo sapiens)): > 2000 nM
Kd (ATF3 (Homo sapiens)): > 2000 nM

CGCGCCAGACCGGAGGTGCGTCATTCACCGGCGACGCCCTCCGGCGGTATGAC (double strand) [98.ATF1_ATF3_CRE_hs_16]
pKd (ATF1 (Homo sapiens)): 6.04
Kd (ATF3 (Homo sapiens)): > 2000 nM

CGCTCGTGCGCGCGGGCCCGTCAGAGTGAGAAGCCCCGCTCCGGCGGTATGAC (double strand) [29.ATF3_CRE_hs_15]
Kd (ATF1 (Homo sapiens)): > 2000 nM
Kd (ATF3 (Homo sapiens)): > 2000 nM

GGCCACTACCGCTTCCTCCACATGAGTCATGGTTTTCTCCACCAAGGAAGT (double strand) [oligo 3 (AP-1)]
binding result (c-Fos): no binding

CGCCATCACGTGGGCCAGCGTCACATGGGCCAGCATCACTCCGGCGGTATGAC (double strand) [40.ATF3_CRE_hs_26]
pKd (ATF1 (Homo sapiens)): 6.12
Kd (ATF3 (Homo sapiens)): > 2000 nM

CGCGGACGCGGAACAGGGCGTCACCCAGGCTCGTAAACCTCCGGCGGTATGAC (double strand) [69.ATF1_CRE_hs_21]
pKd (ATF1 (Homo sapiens)): 6.59
Kd (ATF3 (Homo sapiens)): > 2000 nM

CGCCCGTCGCTCTCAATTCGTCACCAGGAGGAAGACGGCTCCGGCGGTATGAC (double strand) [42.ATF3_CRE_hs_28]
pKd (ATF1 (Homo sapiens)): 6.52
Kd (ATF3 (Homo sapiens)): > 2000 nM

GGCCACTACCGCTTCCTCCACAAATAAAATTGGTTTTCTCCACCAAGGAAGT (double strand) [oligo 7 (Mutant)]
pKd (c-Jun (Homo sapiens); variant of oligo 1 (CRE)): < 5.70
pKd [1]: < 5.70

CGCATCCGCCACCGGAGACGTCACAGCTAAAGCCACGCCTCCGGCGGTATGAC (double strand) [53.ATF1_CRE_hs_5]
pKd (ATF1 (Homo sapiens)): 6.45
Kd (ATF3 (Homo sapiens)): > 2000 nM

CGCCCGGCGGACACCTAACGTCACTTCCGCTTGGGTCGCTCCGGCGGTATGAC (double strand) [77.ATF1_CRE_hs_29]
pKd (ATF1 (Homo sapiens)): 6.49
Kd (ATF3 (Homo sapiens)): > 2000 nM

CGCCAGTGAGATCCCATACGTCACGTGCTTTGCGATTTCTCCGGCGGTATGAC (double strand) [58.ATF1_CRE_hs_10]
pKd (ATF1 (Homo sapiens)): 6.71
Kd (ATF3 (Homo sapiens)): > 2000 nM

TTATCCACTTGCGCTCGCCGAGTGGCGTCACCAGCGGTACTGTAATGACGAT (double strand) [oligo 6 (HS)]
pKd (c-Jun (Homo sapiens)): < 5.70

TTATGACCTGGGAGTGACGTCATGGAATCCACAGA (double strand) [oligo 2 (CRE)]
binding result (c-Fos): no binding

CGCGGCTCCCGCATAGGGCGTCACGTACGTTTAACGTCCTCCGGCGGTATGAC (double strand) [82.ATF1_CRE_hs_34]
pKd (ATF1 (Homo sapiens)): 6.10
Kd (ATF3 (Homo sapiens)): > 2000 nM

CGCTCCTGGCAGTCCCCGCGTCACGTGGGGCCCTACCTCTCCGGCGGTATGAC (double strand) [35.ATF3_CRE_hs_21]
Kd (ATF1 (Homo sapiens)): > 2000 nM
Kd (ATF3 (Homo sapiens)): > 2000 nM

CGCTGGGCGCCTTTTCCGCGTCACTCCGTAACCGGAAGCTCCGGCGGTATGAC (double strand) [50.ATF1_CRE_hs_2]
pKd (ATF1 (Homo sapiens)): 6.53
Kd (ATF3 (Homo sapiens)): > 2000 nM

CGCGCTGGCGTTAGGAGACGTCACTCCCGCGCATAACTCTCCGGCGGTATGAC (double strand) [81.ATF1_CRE_hs_33]
pKd (ATF1 (Homo sapiens)): 6.79
Kd (ATF3 (Homo sapiens)): > 2000 nM

CGCCCTCGGGAGGCGCAGCGTCAGGGCGGGCGGCAGCACTCCGGCGGTATGAC (double strand) [32.ATF3_CRE_hs_18]
pKd (ATF1 (Homo sapiens)): 6.24
Kd (ATF3 (Homo sapiens)): > 2000 nM

GGCCACTACCGCTTCCTCCACAAATAAAATTGGTTTTCTCCACCAAGGAAGT (double strand) [oligo 7 (mutant)]
binding result (c-Jun): no binding
binding result (c-Fos): no binding
binding result (c-Jun + c-Fos): no binding

CGCCGGAAGGCGTAAGTGCGTCACGGAGAGCATCTCGGCTCCGGCGGTATGAC (double strand) [75.ATF1_CRE_hs_27]
pKd (ATF1 (Homo sapiens)): 6.49
Kd (ATF3 (Homo sapiens)): > 2000 nM

TTATCCACTTGCGCTCGCCGAGTGGCGTCACCAGCGGTACTGTAATGACGAT (double strand) [oligo 6 (CRE half-site)]
binding result (c-Jun): no binding
binding result (c-Fos): no binding

CGCGCTGGACCTGCGGCGCGTCACGTGGCGGCTGCCCCCTCCGGCGGTATGAC (double strand) [33.ATF3_CRE_hs_19]
pKd (ATF1 (Homo sapiens)): 6.55
Kd (ATF3 (Homo sapiens)): > 2000 nM

GGCCACTACCGCTTCCTCCACATGGCGTCATGGTTTTCTCCACCAAGGAAGT (double strand) [oligo 5 (HS)]
pKd (c-Jun (Homo sapiens); variant of oligo 1 (CRE)): < 5.70

CGCCCCAGCAACTGTCGACGTCACACGACCTGGGCCTCCTCCGGCGGTATGAC (double strand) [66.ATF1_CRE_hs_18]
pKd (ATF1 (Homo sapiens)): 6.86
Kd (ATF3 (Homo sapiens)): > 2000 nM

CGCGGCGCGCGGCTGTGTCGTCATACTTGCGCGCCGACCTCCGGCGGTATGAC (double strand) [67.ATF1_CRE_hs_19]
pKd (ATF1 (Homo sapiens)): 6.79
Kd (ATF3 (Homo sapiens)): > 2000 nM

GGCCACTACCGCTTCCTCCACATGGCGTCATGGTTTTCTCCACCAAGGAAGT (double strand) [oligo 5 (CRE half-site)]
binding result (c-Jun): no binding
binding result (c-Fos): no binding

CGCAAATGGAGTCGCAGCCGTCAACTCGCCCTCGGCCTCTCCGGCGGTATGAC (double strand) [41.ATF3_CRE_hs_27]
pKd (ATF1 (Homo sapiens)): 6.53
Kd (ATF3 (Homo sapiens)): > 2000 nM

CGCTTCTCCCCTACCCGCCCCAGCGTGCCGGGGAATGCCTCCGGCGGTATGAC (double strand) [122.Unbound_non_CRE_1]
pKd (ATF1 (Homo sapiens)): < 5.70
pKd (ATF3 (Homo sapiens)): < 5.70

CGCGCGCGCAGGCGCCTGCGTCATTCACGCGCGCCGCACTCCGGCGGTATGAC (double strand) [101.ATF1_ATF3_CRE_hs_19]
pKd (ATF1 (Homo sapiens)): 6.15
Kd (ATF3 (Homo sapiens)): > 2000 nM

CGCGCGCTGGCGCGCTGTCGTCACGATTACGCGGCCAGCTCCGGCGGTATGAC (double strand) [61.ATF1_CRE_hs_13]
pKd (ATF1 (Homo sapiens)): 6.84
Kd (ATF3 (Homo sapiens)): > 2000 nM

CGCTTGTGAATTTACATGTGACGTCAGAAAGGCTCTGTAGACTCCGGCGGTATGAC (double strand) [10.Unbound_CRE_1]
pKd (ATF1 (Homo sapiens)): 7.24

GGCCACTACCGCTTCCTCCACATGACGTCATGGTTTTCTCCACCAAGGAAGT (double strand) [oligo 1 (CRE)]
binding result (c-Fos): no binding

CGCACCCACCACATGACACGCCCACAGAACGCCCGCTCCTCCGGCGGTATGAC (double strand) [123.Unbound_non_CRE_2]
pKd (ATF1 (Homo sapiens)): < 5.70

CGCCAACGAGTTCCAGTTCGTCAGCGGCCGCGAGACGGCTCCGGCGGTATGAC (double strand) [118.Unbound_CRE_hs_2]
pKd (ATF1 (Homo sapiens)): 6.07

CGCCGATTGGCCGGCTGGCGTCACGTGGCCTCCATCAGCTCCGGCGGTATGAC (double strand) [36.ATF3_CRE_hs_22]
pKd (ATF1 (Homo sapiens)): 6.48
Kd (ATF3 (Homo sapiens)): > 2000 nM

CGCCGGCGCGCTTCCCTACGTCACTCGGAGCGCCGGCGCTCCGGCGGTATGAC (double strand) [105.ATF1_ATF3_CRE_hs_23]
pKd (ATF1 (Homo sapiens)): 6.70

CGCCAGCCCAGCCTCGGACGTCAACAATCCATGTTTCTCTCCGGCGGTATGAC (double strand) [121.Unbound_CRE_hs_5]
pKd (ATF1 (Homo sapiens)): 6.10

TTATGACCTGGGAGTGAGTCAATGGAATCCACAGA (double strand) [oligo 4 (AP-1)]
pKd (c-Jun (Homo sapiens); variant of oligo 2 (CRE)): < 5.70
binding result (c-Jun): no binding
binding result (c-Fos): no binding

CGCCAGCAGCACCGACCGCGTCAACCCCTCTGTGCTCACTCCGGCGGTATGAC (double strand) [117.Unbound_CRE_hs_1]
pKd (ATF1 (Homo sapiens)): 6.62
